PubChem BioAssay AID2685 (National Center for Advancing Translational Sciences (NCATS), 2010)
Some of the results follow. Shown are side measurements of this screen, not its main read-out; they come without a call. Compounds called inactive in the main read-out are mostly missing here. Potencies come from curve fits of mixed quality, noted in brackets.

Test: qHTS Assay for Lipid Storage Modulators in Drosophila S3 Cells;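 on cell number change: cells counted by Cell Tracker Red CMTPX staining in the red channel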
Conditions: BODIPY lipid droplet fluorescence, 18-24 h; for cell number change: measured here: cell count max response, cells fed with added oleic acid
How it was run: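 Drosophila S3 cells got compounds at several concentrations plus oleic acid (400 uM solution). Laser-scanning cytometry with 488 nm excitation read lipid droplets at 500-530 nm and cells at 575-640 nm. Percent activity was relative to 20 uM Triacsin C.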

[1] = measured here: cell number channel AC50, cells fed with added oleic acid
[2] = measured here: lipid fluorescence (Fed channel) AC50, cells fed with added oleic acid

Compound	cell number change	AC50 [1]	AC50 [2]
CCOc1cc(/C=C2\C(=O)N(c3cccc(C(F)(F)F)c3)C(=O)c3ccccc32)ccc1O	-0.0847%	1.84 µM [falling, partial curve]	1.64 µM [falling, partial curve]
Cc1ccc(C)c(NS(=O)(=O)c2csc(C(N)=O)c2)c1	-34.7%	25.9 µM [falling, single point]	–
O=C(CSc1nc(C2CC2)n(-c2ccccc2)n1)NCc1ccco1	1.51%	–	–
O=C1CCCN1CCCNC(=S)Nc1cccc2ccccc12	5.5%	–	–
O=C(Nc1ccc(S(=O)(=O)N2CCOCC2)cc1)c1cc(S(=O)(=O)N2CCOCC2)ccc1Cl	-4.52%	–	6.51 µM [rising, partial curve, poor fit]
Cc1cc(C)n2nc(C(=O)NNC(=O)c3ccc(Cl)cc3)nc2n1	–	–	0.92 µM [falling, full curve]
O=C(N/C(=C\c1ccc([N+](=O)[O-])cc1)C(=O)N1CCCCC1)c1ccc(Br)o1	-11.4%	–	25.9 µM [falling, single point]
CC(=O)N[C@@H](C)c1nc2ccccc2n1CCNC(=O)[C@H]1CCCN1c1nc(CN2CCCCC2)cs1	17.4%	–	14.6 µM [falling, single point]
CC1CCCN(C(=O)C2CCN(S(=O)(=O)c3cccc4cccnc34)CC2)C1 (centres undefined)	10.4%	–	1.16 µM [falling, single point]
CCCCOC(=O)/C=C/c1ccc(OC(=O)OC)c(OC(=O)OC)c1	80.9%	29.1 µM [rising, single point]	–
Cc1cc(N)nc(C)c1C#N	14.6%	0.00461 µM [rising, full curve, poor fit]	–
Cc1cccc(C)c1OCC(O)CN1CCN(c2ccccn2)CC1 (centres undefined)	37.9%	–	0.82 µM [rising, single point]
CCOC(=O)c1c(C)nc2sc3c(=O)n(-c4ccc(C(C)=O)cc4)nnc3c2c1-c1ccc(Cl)cc1	–	0.0517 µM [rising, full curve, poor fit]	0.0058 µM [rising, full curve, poor fit]
S=C(Nc1ccc(Cl)cc1)c1nc2ccccc2s1	-62.8%	18.4 µM [falling, partial curve]	18.4 µM [falling, partial curve]
COc1cc(/C=C2/NC(=O)N(Cc3ccccc3F)C2=O)cc(OC)c1O	-14.4%	–	2.31 µM [falling, partial curve]
COc1ccc(S(=O)(=O)Nc2ccccc2SC)cc1C	–	–	3.66 µM [rising, single point]
O=C(CSc1nc2ccccc2o1)Nc1nc(-c2ccccc2)cs1	4.97%	–	6.51 µM [rising, single point]
COc1ccc(CCC(=O)NCCc2nc3ccccc3[nH]2)cc1	-35%	29.1 µM [falling, single point]	29.1 µM [falling, single point]
O=C(N/N=C/c1c(O)ccc2ccccc12)c1[nH]ncc1Br	-20.1%	0.00461 µM [falling, full curve, poor fit]	5.8 µM [falling, partial curve, poor fit]

Compound	cell number change	AC50 [1]	AC50 [2]
CC(=O)Nc1ccc(NC(=O)CNC(=O)COc2ccccc2)cc1	-27.4%	–	0.82 µM [falling, full curve, poor fit]
CC(NC(=O)c1ccccc1F)c1nnc(SCC(=O)NC2CCCC2)n1C (centres undefined)	33.3%	4.11 µM [rising, full curve]	–
Cc1ccccc1NC(=O)c1c(C)[nH]c(=S)c(C#N)c1-c1ccc(Cl)cc1	-24%	–	20.6 µM [falling, single point]
CC1CN(Cc2nnc(-c3ccccc3)o2)CC(C)O1 (centres undefined)	8.17%	–	–
C/C=C(/C)C(=O)OC1c2c(ccc3ccc(=O)oc23)OC(C)(C)C1OC(=O)/C(C)=C\C (centres undefined)	-34.1%	11.6 µM [falling, partial curve]	5.8 µM [falling, partial curve]
Cn1ccnc1SCCNC(=O)CCc1nnc(CCCCc2ccccc2)o1	-14.4%	–	0.13 µM [falling, full curve, poor fit]
COc1cc(C(=O)NCc2nnc(SCC(=O)NC3CCCC3)o2)cc(OC)c1OC	–	6.51 µM [falling, single point]	–
O=S(=O)(c1ccc(NC(=S)NCc2ccco2)cc1)N1CCCC1	17.6%	–	11.6 µM [rising, partial curve, poor fit]
Cc1nc2n(n1)C(O)c1cc([N+](=O)[O-])ccc1S2 (centres undefined)	-3.7%	–	–
CCOC(=O)NC(=O)c1cn(N(C)c2ncc(C(F)(F)F)cc2Cl)c(=O)[nH]c1=O	-20.4%	–	16.4 µM [falling, single point]
COc1ccc(N(CC(=O)NCC(C)C)S(=O)(=O)c2ccccc2)cc1	1.09%	–	0.184 µM [falling, full curve, poor fit]
COc1cc(/C=C(/C#N)c2nc3ccccc3c(=O)[nH]2)ccc1O	39.6%	6.51 µM [rising, partial curve]	7.31 µM [rising, partial curve]
Cc1ccc2nc(NCc3ccccc3)c(C#N)cc2c1	-2.17%	0.058 µM [rising, full curve, poor fit]	0.231 µM [rising, full curve]
Cc1ccc(/C=N/NC(=O)COc2ccc(Cl)c(C)c2)o1	4.17%	–	–
CCn1c(=O)c(C(=O)CN(C)CC(=O)Nc2ccccc2Br)c(N)n(Cc2ccccc2)c1=O	1.2%	–	–
Cc1ccc(C)c(NC(=O)CS(=O)(=O)c2cccc3nsnc23)c1	55.5%	0.326 µM [rising, full curve, poor fit]	29.1 µM [rising, partial curve, poor fit]
Cc1ccc(NCc2ccc(Cl)nc2)c(NCc2ccc(Cl)nc2)c1	10.8%	–	0.0206 µM [rising, full curve, poor fit]
O=C(CCc1ccccc1)NNC(=O)c1cccc(F)c1	7.06%	6.51 µM [rising, single point]	3.66 µM [rising, single point]

2 successive entries out of the list so far, quoted:
Compound	cell number change	AC50 [1]	AC50 [2]
Cc1ccc(C)c(NC(=O)CS(=O)(=O)c2cccc3nsnc23)c1	55.5%	0.326 µM [rising, full curve, poor fit]	29.1 µM [rising, partial curve, poor fit]
Cc1ccc(NCc2ccc(Cl)nc2)c(NCc2ccc(Cl)nc2)c1	10.8%	–	0.0206 µM [rising, full curve, poor fit]
